{"source": "PubChem BioAssay AID1508600", "about": "(Functional Genomics Laboratory (NCATS/FGL), 2020)", "note": "Out of some 53,000 sequences screened, about 3,700 (7%) were called active.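 The calls were made as follows: active = gene knockdowns whose robust z-score for IL-1 alpha signal is at least 2 or at most -2, so actives lie on both sides; inactive = the rest.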 Some of the results follow."}
{"assay": "Components of the Cytosolic LPS Sensing Pathway: Gene Identification via Genome-wide siRNA Screen;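 also: robust z of the log signal after scaling to non-targeting control siRNA wells of the plate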", "conditions": "RAW264.7 macrophages, IL-1a HTRF, actives lie on both sides, screened at 100 nM (by protocol), cells primed 5 h with Pam3CSK4 first", "how_it_was_run": "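Cells (RAW264.7, 1×10^4 per well) were transfected with siRNA at 100 nM and cultured 48h at 37 degrees C. Pam3CSK4 was added for 5 hours; LipidA transfection followed for 24 hour. IL-1a was then measured by HTRF.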"}
{"sequence": "GGGCACCAGUGGUUAUUAATT against Chst14", "z-score": "inactive: 0.232"}
{"sequence": "GCUGAUAUGCUAUUGUAGATT against Defa5", "z-score": "inactive: 0.0696"}
{"sequence": "CCUGGAGAGCAUUGACAUCTT against Irx1", "z-score": "inactive: 0.624"}
{"sequence": "CCUUAUGGUGCGCAUUAAATT against Kcnq1", "z-score": "inactive: -1.1"}
{"sequence": "GCUACGUCUUUUUUAGGGCTT against Mrap", "z-score": "inactive: 0.373"}
{"sequence": "GGCAUUGUGAAAUCCUAUUTT against Lhx5", "z-score": "inactive: -1.31"}
{"sequence": "AAAGACUGUGACCUCUGGGTT against Tgoln2", "z-score": "inactive: 0.711"}
{"sequence": "CCCACUGUACAUUUGUAAATT against Prss27", "z-score": "inactive: 0.447"}
{"sequence": "GGCUCCUGGAAUUCUUACGTT against Snx11", "z-score": "inactive: -0.648"}
{"sequence": "GGAAGACCCUAAUCUAGUCTT against Cox5b", "z-score": "active: 2.1"}
{"sequence": "GGGAUGUGUAUUUAAUUACTT against Nr6a1", "z-score": "inactive: -0.764"}
{"sequence": "GGUGAAUUCUCAUGCAUGGTT against Timp2", "z-score": "inactive: -0.513"}
{"sequence": "GGAAACAAGGGACUCUGUATT against Col4a4", "z-score": "inactive: 0.906"}
{"sequence": "CCCUGUUGAUGAACAAAUCTT against Ddt", "z-score": "inactive: -0.262"}
{"sequence": "GGGAAUCGGUGGAUUUGGATT against Ier3ip1", "z-score": "inactive: -0.969"}
{"sequence": "GCCUCUGGUGGAAGUAUACTT against Sec14l3", "z-score": "inactive: -0.918"}
{"sequence": "UCAUUGGUCCAGCCUAUAGTT against A330070K13Rik", "z-score": "inactive: -0.534"}
{"sequence": "GCAUGAAAAGCCUCUAUAUTT against Cxcl15", "z-score": "inactive: 0.33"}
{"sequence": "CGUUUUUAUGAGGAGGCCUTT against N4bp3", "z-score": "inactive: -0.897"}
{"sequence": "GGCUUGCAAAGUGAAUCCUTT against Gls2", "z-score": "inactive: -0.417"}
{"sequence": "CCAUCUCAUCCCACGACACTT against Mrgprx1", "z-score": "inactive: -0.334"}
{"sequence": "GCUGCUAAGGAAUUUAAAATT against Topors", "z-score": "inactive: 0.971"}
{"sequence": "GUUGGACUAAGCGACCUUGTT against Rps29", "z-score": "inactive: -1.35"}
{"sequence": "GGUGUUUCAUAAGAAGGAATT against 1700010H22Rik", "z-score": "inactive: -1.01"}
{"sequence": "GGAAACUCCGUCCCAAUUGTT against Trim68", "z-score": "inactive: 1.39"}
{"sequence": "CGCAAAAUGCUUACCUGCUTT against Mfsd2a", "z-score": "inactive: -0.274"}
{"sequence": "GGAUCCCAAGUUCAAAGCCTT against Rfxap", "z-score": "active: 2.07"}
{"sequence": "GGAAAUAUCCUAAACAGAATT against Gdpd2", "z-score": "inactive: -0.864"}
{"sequence": "CCUCUCUGAAAACAUGUCUTT against Sntb2", "z-score": "inactive: 0.683"}
{"sequence": "CCUCGGUAUUAACGUGGAATT against Dmrta2", "z-score": "inactive: -0.818"}
{"sequence": "GCUCCAAAGAGAUUGAGACTT against Ccdc65", "z-score": "inactive: -1.63"}
{"sequence": "GGCCAAAGUGCAGAUGAAATT against Klhl38", "z-score": "inactive: -0.917"}
{"sequence": "GGAAGCCCUUAUGGACGAATT against Ang2", "z-score": "inactive: 0.751"}
{"sequence": "GGAGAUACAGGAUAUUAUUTT against Nme5", "z-score": "inactive: -0.0528"}
{"sequence": "GGACUGUGCAUUUUCAGGUTT against Sumo1", "z-score": "inactive: 0.258"}
{"sequence": "GGCUACAUUAGUGCCUGGUTT against Trp53rkb", "z-score": "inactive: 0.469"}
{"sequence": "CCGGCUUUGAAGUCAUUACTT against Slc4a3", "z-score": "inactive: 1.92"}
{"sequence": "CCAUCUAUUACGGAACGGGTT against Olfr324", "z-score": "inactive: 1.36"}
{"sequence": "GGCAGGAAAACAAAAGGGATT against Cobll1", "z-score": "inactive: -0.384"}
{"sequence": "GGCUUCCAAAACAAAUCAATT against Rgn", "z-score": "inactive: 0.857"}
{"sequence": "CGAGAUUAUCAGUCAAUUGTT against Tex24", "z-score": "active: 2.02"}
{"sequence": "CCCUGAUCUUGUGAGAAUUTT against Gmnc", "z-score": "inactive: -1.83"}
{"sequence": "CCUGACUUCUACUAAAGAATT against Xxylt1", "z-score": "inactive: 1.1"}
{"sequence": "GGUUACCUGUAGAUGAUUCTT against Slc4a1ap", "z-score": "inactive: -0.861"}
{"sequence": "GGUACAGAACAUGUUCUAATT against Klf4", "z-score": "inactive: 1.18"}
{"sequence": "GCAUUUUAGAAGGUUAUCGTT against Dmrt2", "z-score": "inactive: -1.23"}
{"sequence": "GUAGGAUAUACCAUCUACATT against Olfr700", "z-score": "inactive: -0.708"}
{"sequence": "GCAUUCAUGAAAGUGUUAGTT against Olfr164", "z-score": "inactive: 0.0366"}
{"sequence": "GGUGAAGUUACAGUCAAAUTT against Nolc1", "z-score": "active: 2.54"}
{"sequence": "GGUAGACUAUCUGGAGACATT against Olfml3", "z-score": "inactive: 0.553"}
{"sequence": "GGUAUCCUUGCUUUGUGACTT against Gm5111", "z-score": "inactive: 0.37"}
{"sequence": "GGACCUAUUUCUCUGCUCCTT against Col6a6", "z-score": "inactive: 0.457"}
{"sequence": "GGAGUAUGUCCAUUGUCACTT against Vmn1r230", "z-score": "active: -2.54"}
{"sequence": "GGCACAAGAGCAAAGGCUUTT against Gmppb", "z-score": "inactive: -0.575"}
{"sequence": "GGUCAUGAACCUCAUCAUCTT against Nckap1l", "z-score": "inactive: -0.552"}
{"sequence": "GGACAAGUAUGUCACAGCGTT against Kcnh2", "z-score": "inactive: -0.705"}
{"sequence": "GGUCCUCAUCUGGAACCUGTT against Coro2b", "z-score": "inactive: -0.279"}
{"sequence": "GGGUCAUAAAAGUUGUUCUTT against Mtmr4", "z-score": "inactive: -0.417"}
{"sequence": "GGGCACUUAUGCAAGCAAATT against Pcyt1b", "z-score": "inactive: 0.204"}
{"sequence": "GGAGAAUGACUAGGUAAUCTT against A130010J15Rik", "z-score": "inactive: 1.27"}
{"sequence": "GGAGAGCCCUAUAGAAGUUTT against Zfp639", "z-score": "inactive: 0.0696"}
{"sequence": "GCUAUUGGUGCUUUUAUACTT against Olfr1198", "z-score": "inactive: 1.28"}
{"sequence": "GGAGAUGUUGGACUUCAUGTT against Nxnl2", "z-score": "active: -2.42"}
{"sequence": "GGAUACGAUGUGCUAAGGUTT against Rars", "z-score": "inactive: 1.51"}
{"sequence": "GCAAUUAGGACUUCAAGAGTT against Snx14", "z-score": "inactive: -0.784"}
{"sequence": "GGAUUUAGGGACAACACAATT against Nol4l", "z-score": "inactive: -0.981"}
{"sequence": "GCUCGAACUGUGUUCUAACTT against Polr3b", "z-score": "inactive: 1.82"}
{"sequence": "GCUUCUGUUAUGAGGCUCATT against Hif1a", "z-score": "active: -2.52"}
